Assay results reported in publication PMC3745031 (Bioorganic & medicinal chemistry letters, 2012).

Tested on: HDAC activity of HeLa cell lysates
Details: read-out: IC50, HDAC inhibition, mean of at least three experiments with standard error

## O=C(CCCCCCC(=O)Nc1ccccc1)NO [SAHA, Suberoylanilide hydroxamic acid]
  IC50: 86 ± 4 nM
